Assay [1] deals with CTNNBL1 (residues 77-563), wild type (human) (UniProt Q8WYA6). The assay can be described thus: SAXS; CTNNBL1/CDC5L complexes at 1.0-2.0 mg/ml, 40 mM Tris-HCl pH 8.0 without NaCl, 4 °C; ab initio models with P2 symmetry; both purified.
Assay [2] has the same target. The experiment in a line: SEC; Superdex 200 10/300, 500 μl of 2 mg/ml protein, 0.5 ml/min, 40 mM Tris-HCl pH 8.0, 150 mM NaCl; molecular weight from calibration standards; both purified. For orientation: In gel filtration, larger molecules generally elute earlier.
The target of assay [3] is CTNNBL1^L87R/I101R/G148R/Q192R/Q199R/Q238A/E278A/E282A (human) (UniProt Q8WYA6). The assay can be described thus: SAXS; eight-point CTNNBL1 mutant alone, 100 mM NaCl by the methods (150 mM NaCl by the results), 4 °C; both purified.
Assay [4] shares this target. The experiment in a line: SEC; Superdex 200 10/300, 500 μl of 2 mg/ml protein, 0.5 ml/min, 40 mM Tris-HCl pH 8.0, 150 mM NaCl; molecular weight from calibration standards; both purified.

These are yes or no findings as the source states them, for the method shown. Some binding calls cover weakened binding; strength is not graded here.

B1: CTNNBL1 (residues 77-563), wild type (domain or fragment, UniProt Q8WYA6 77-563)
chain: LDESSVKKMILTFEKRSYKNQELRIKFPDNPEKFMESELDLNDIIQEMHVVATMPDLYHLLVELNAVQSLLGLLGHDNTDVSIAVVDLLQELTDIDTLHESEEGAEVLIDALVDGQVVALLVQNLERLDESVKEEADGVHNTLAIVENMAEFRPEMCTEGAQQGLLQWLLKRLKAKMPFDANKLYCSEVLAILLQDNDENRELLGELDGIDVLLQQLSVFKRHNPSTAEEQEMMENLFDSLCSCLMLSSNRERFLKGEGLQLMNLMLREKKISRSSALKVLDHAMIGPEGTDNCHKFVDILGLRTIFPLFMKSPRKIKKVGTTEKEHEEHVCSILASLLRNLRGQQRTRLLNKFTENDSEKVDRLMELHFKYLGAMQVADKKIEGEKHDMVRRGEIIDNDTEEEFYLRRLDAGLFVLQHICYIMAEICNANVPQIRQRVHQILNMRGSSIKIVRHIIKEYAENIGDGRSPEFRENEQKRILGLLENF
For B1, the binding result in assay [1] and in assay [2] was “binds” each time.

B2: CTNNBL1^L87R/I101R/G148R/Q192R/Q199R/Q238A/E278A/E282A (domain or fragment, UniProt Q8WYA6 77-563)
chain: LDESSVKKMIRTFEKRSYKNQELRRKFPDNPEKFMESELDLNDIIQEMHVVATMPDLYHLLVELNAVQSLLRLLGHDNTDVSIAVVDLLQELTDIDTLHESEEGAEVLIDALVDGRVVALLVRNLERLDESVKEEADGVHNTLAIVENMAEFRPEMCTEGAAQGLLQWLLKRLKAKMPFDANKLYCSEVLAILLQDNDENRALLGALDGIDVLLQQLSVFKRHNPSTAEEQEMMENLFDSLCSCLMLSSNRERFLKGEGLQLMNLMLREKKISRSSALKVLDHAMIGPEGTDNCHKFVDILGLRTIFPLFMKSPRKIKKVGTTEKEHEEHVCSILASLLRNLRGQQRTRLLNKFTENDSEKVDRLMELHFKYLGAMQVADKKIEGEKHDMVRRGEIIDNDTEEEFYLRRLDAGLFVLQHICYIMAEICNANVPQIRQRVHQILNMRGSSIKIVRHIIKEYAENIGDGRSPEFRENEQKRILGLLENF
B2: the binding result is recorded as “no binding” in assay [3] and “no binding (tested: 2 mg/ml injected)” in assay [4].
